According to the supplement of paper PMC6078165:
The reference is the same well before dosing, and untreated signal decays as well.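 Labels refer to human fibroblasts, largely primary: uterine (C12385, HUF), lung (H6013), bone (Hs27A), adrenal (HADF), skin (WS1), plus mammary HMF and breast cancer-associated Hs343T. Cancer lines are basal-like or mesenchymal-like triple-negative breast cancer. The paper counts as hits responses shifting over 3x the replicate standard deviation. The tissue of the other fibroblasts is not given here.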

Test system: HCC1143
Assay: relative JC-1 red fluorescence (viability) vs pre-drug, coculture with fibroblast (fraction); higher = more viable cancer cells
Protocol: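 JC-1 labelled TNBC cells cocultured 1:1 (1,500 cells each) with CellTrace Violet stained primary or stromal fibroblasts in 384-well plates in FluoroBrite medium, treated with one of 42 anticancer drugs at 0.1, 1, 10 or 100 uM. JC-1 red fluorescence (mitochondrial integrity in cancer cells only) was read by plate reader every 8 h for 72 h. Values are normalised to each well's pre-drug value. The stock of one drug was tenfold lower, so its dose labels may be too high.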

O=C1c2c(O)ccc(O)c2C(=O)c2c(NCCNCCO)ccc(NCCNCCO)c21 [Mitoxantrone]
relative JC-1 red fluorescence
Details | 8 h | 16 h | 24 h | 32 h | 40 h | 48 h | 56 h | 64 h | 72 h
0.1 µM, coculture fibroblast: C12385 | 0.80938 | 0.743 | 0.668 | 0.622 | 0.563 | 0.517 | 0.485 | 0.435 | 0.406
0.1 µM, coculture fibroblast: H6013 | 0.712 | 0.6329 | 0.615 | 0.622 | 0.564 | 0.556 | 0.532 | 0.516 | 0.505
0.1 µM, coculture fibroblast: H6019 | 0.817 | 0.738 | 0.694 | 0.637 | 0.6 | 0.563 | 0.518 | 0.471 | 0.432
0.1 µM, coculture fibroblast: H6076 | 0.772 | 0.739 | 0.729 | 0.741 | 0.7094 | 0.737 | 0.726 | 0.718 | 0.742
0.1 µM, coculture fibroblast: H6231 | 0.7059 | 0.745 | 0.659 | 0.504 | 0.5648 | 0.5229 | 0.492 | 0.458 | 0.436
0.1 µM, coculture fibroblast: HADF | 0.656 | 0.5761 | 0.5469 | 0.57234 | 0.495 | 0.4718 | 0.455 | 0.439 | 0.442
0.1 µM, coculture fibroblast: HCFa | 0.699 | 0.613 | 0.578 | 0.577 | 0.502 | 0.48 | 0.448 | 0.424 | 0.414
0.1 µM, coculture fibroblast: HCPF | 0.74 | 0.7711 | 0.718 | 0.6088 | 0.6609 | 0.6333 | 0.6072 | 0.584 | 0.56
0.1 µM, coculture fibroblast: HHSteC | 0.689 | 0.6013 | 0.57 | 0.557 | 0.485 | 0.451 | 0.429 | 0.408 | 0.382
0.1 µM, coculture fibroblast: HMF | 0.741 | 0.762 | 0.7085 | 0.647 | 0.657 | 0.643 | 0.62 | 0.601 | 0.586
0.1 µM, coculture fibroblast: HPFa | 0.889 | 0.819 | 0.807 | 0.744 | 0.708 | 0.675 | 0.633 | 0.586 | 0.549
0.1 µM, coculture fibroblast: HUF | 0.8304 | 0.7474 | 0.709 | 0.65 | 0.618 | 0.589 | 0.551 | 0.527 | 0.4977
0.1 µM, coculture fibroblast: Hs5 | 0.7885 | 0.7694 | 0.7422 | 0.753 | 0.701 | 0.684 | 0.676 | 0.652 | 0.665
0.1 µM, coculture fibroblast: Hs27A | 0.6167 | 0.553 | 0.526 | 0.5655 | 0.461 | 0.445 | 0.4238 | 0.4102 | 0.4346
0.1 µM, coculture fibroblast: Hs343T | 0.7656 | 0.748 | 0.711 | 0.683 | 0.677 | 0.669 | 0.654 | 0.646 | 0.639
0.1 µM, coculture fibroblast: WS1 | 0.787 | 0.726 | 0.68 | 0.629 | 0.592 | 0.553 | 0.522 | 0.494 | 0.474
1 µM, coculture fibroblast: C12385 | 0.603 | 0.547 | 0.532 | 0.495 | 0.462 | 0.454 | 0.446 | 0.437 | 0.434
1 µM, coculture fibroblast: H6013 | 0.284 | 0.274 | 0.274 | 0.277 | 0.269 | 0.277 | 0.253 | 0.235 | 0.159
1 µM, coculture fibroblast: H6019 | 0.636 | 0.5781 | 0.54 | 0.484 | 0.443 | 0.428 | 0.399 | 0.372 | 0.357
1 µM, coculture fibroblast: H6076 | 0.48699 | 0.458 | 0.451 | 0.458 | 0.388 | 0.38 | 0.356 | 0.342 | 0.348
1 µM, coculture fibroblast: H6231 | 0.423 | 0.392 | 0.386 | 0.42 | 0.355 | 0.348 | 0.332 | 0.318 | 0.328
1 µM, coculture fibroblast: HADF | 0.257 | 0.246 | 0.254 | 0.252 | 0.232 | 0.239 | 0.234 | 0.229 | 0.155
1 µM, coculture fibroblast: HCFa | 0.346 | 0.34 | 0.338 | 0.333 | 0.322 | 0.325 | 0.316 | 0.295 | 0.228
1 µM, coculture fibroblast: HCPF | 0.434 | 0.39 | 0.393 | 0.424 | 0.363 | 0.361 | 0.345 | 0.336 | 0.353
1 µM, coculture fibroblast: HHSteC | 0.304 | 0.284 | 0.28 | 0.267 | 0.249 | 0.244 | 0.2269 | 0.215 | 0.1541
1 µM, coculture fibroblast: HMF | 0.415 | 0.4276 | 0.405 | 0.396 | 0.351 | 0.333 | 0.306 | 0.283 | 0.287
1 µM, coculture fibroblast: HPFa | 0.662 | 0.617 | 0.602 | 0.527 | 0.481 | 0.4675 | 0.427 | 0.4207 | 0.403
1 µM, coculture fibroblast: HUF | 0.614 | 0.576 | 0.55 | 0.509 | 0.482 | 0.486 | 0.449 | 0.442 | 0.427
1 µM, coculture fibroblast: Hs5 | 0.4929 | 0.476 | 0.475 | 0.5 | 0.425 | 0.422 | 0.407 | 0.391 | 0.396
1 µM, coculture fibroblast: Hs27A | 0.284 | 0.291 | 0.306 | 0.336 | 0.315 | 0.35 | 0.338 | 0.335 | 0.249
1 µM, coculture fibroblast: Hs343T | 0.439 | 0.416 | 0.393 | 0.398 | 0.32 | 0.3 | 0.275 | 0.265 | 0.264
1 µM, coculture fibroblast: WS1 | 0.553 | 0.532 | 0.502 | 0.44 | 0.413 | 0.404 | 0.39 | 0.377 | 0.366
10 µM, coculture fibroblast: C12385 | 0.388 | 0.261 | 0.269 | 0.35 | 0.445 | 0.48 | 0.467 | 0.419 | 0.373
10 µM, coculture fibroblast: H6013 | 0.097 | 0.0382 | 0.0886 | 0.155 | 0.183 | 0.187 | 0.149 | 0.115 | 0.0206
10 µM, coculture fibroblast: H6019 | 0.473 | 0.391 | 0.352 | 0.379 | 0.394 | 0.414 | 0.38 | 0.347 | 0.303
10 µM, coculture fibroblast: H6076 | 0.35 | 0.261 | 0.206 | 0.281 | 0.242 | 0.256 | 0.233 | 0.188 | 0.195
10 µM, coculture fibroblast: H6231 | 0.236 | 0.126 | 0.15 | 0.2376 | 0.26 | 0.273 | 0.217 | 0.159 | 0.112
10 µM, coculture fibroblast: HADF | 0.0389 | 0.0101 | 0.00358 | 0.0927 | 0.142 | 0.167 | 0.155 | 0.132 | 0.0448
10 µM, coculture fibroblast: HCFa | 0.0609 | 0.0151 | 0.0349 | 0.122 | 0.168 | 0.182 | 0.153 | 0.115 | 0.0297
10 µM, coculture fibroblast: HCPF | 0.288 | 0.174 | 0.145 | 0.252 | 0.243 | 0.28 | 0.283 | 0.249 | 0.226
10 µM, coculture fibroblast: HHSteC | 0.06863 | 0.0543 | 0.136 | 0.216 | 0.248 | 0.228 | 0.186 | 0.14 | 0.0474
10 µM, coculture fibroblast: HMF | 0.252 | 0.173 | 0.106 | 0.192 | 0.154 | 0.188 | 0.175 | 0.15 | 0.118
10 µM, coculture fibroblast: HPFa | 0.368 | 0.336 | 0.3952 | 0.418 | 0.384 | 0.3987 | 0.347 | 0.312 | 0.251
10 µM, coculture fibroblast: HUF | 0.325 | 0.237 | 0.303 | 0.296 | 0.282 | 0.292 | 0.277 | 0.238 | 0.235
10 µM, coculture fibroblast: Hs5 | 0.331 | 0.226 | 0.236 | 0.357 | 0.357 | 0.382 | 0.365 | 0.305 | 0.293
10 µM, coculture fibroblast: Hs27A | 0.00964 | 0.0156 | 0.0295 | 0.0952 | 0.117 | 0.157 | 0.134 | 0.119 | 0.0379
10 µM, coculture fibroblast: Hs343T | 0.299 | 0.162 | 0.134 | 0.266 | 0.243 | 0.302 | 0.279 | 0.244 | 0.221
10 µM, coculture fibroblast: WS1 | 0.342 | 0.219 | 0.26 | 0.349 | 0.436 | 0.464 | 0.41 | 0.353 | 0.291
